Results are given in words; binding and its absence hold for the method and conditions named. For some of these results: Binding seen in cells or lysates may run through a third protein. Some entries that bind do so weakly or less than the wild type.
Assays:
[1] = biological target: free hemoglobin from septic rats (rat) (UniProt P01946+P02091); experiment: pull-down on haptoglobin-sepharose beads, extracorporeal device
[2] = biological target: HMGB1 from the blood of septic rats (rat) (UniProt P63159); experiment: as above
[3] = biological target: HMGB1 from the blood of septic rats (rat) (UniProt P63159); experiment: extracorporeal haptoglobin affinity chromatography
[4] = biological target: HMGB1 (Homo sapiens (Human)) (UniProt P09429); experiment: structural functional analysis / SPR

By UniProt entry, the sequences of proteins in these tests, tags left out. Where a name states a change or a piece, a line headed by the entry shows the natural chain unless it says otherwise. Residues count along the entry.
UniProt P01946: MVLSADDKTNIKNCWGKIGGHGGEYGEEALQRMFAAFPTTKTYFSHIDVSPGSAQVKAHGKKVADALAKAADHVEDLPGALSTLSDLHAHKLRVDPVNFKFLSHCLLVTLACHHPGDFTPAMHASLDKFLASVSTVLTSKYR
UniProt P02091: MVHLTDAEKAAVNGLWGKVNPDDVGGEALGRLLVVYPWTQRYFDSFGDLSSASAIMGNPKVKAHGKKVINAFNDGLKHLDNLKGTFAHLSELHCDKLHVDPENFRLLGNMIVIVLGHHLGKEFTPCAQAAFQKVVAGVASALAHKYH
UniProt P63159, residues 2-215: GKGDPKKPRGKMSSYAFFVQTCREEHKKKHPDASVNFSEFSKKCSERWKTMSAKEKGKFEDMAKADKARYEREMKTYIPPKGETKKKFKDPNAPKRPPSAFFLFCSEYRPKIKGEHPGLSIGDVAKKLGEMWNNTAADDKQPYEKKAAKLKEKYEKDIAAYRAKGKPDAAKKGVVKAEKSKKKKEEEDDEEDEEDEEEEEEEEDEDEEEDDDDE
UniProt P09429: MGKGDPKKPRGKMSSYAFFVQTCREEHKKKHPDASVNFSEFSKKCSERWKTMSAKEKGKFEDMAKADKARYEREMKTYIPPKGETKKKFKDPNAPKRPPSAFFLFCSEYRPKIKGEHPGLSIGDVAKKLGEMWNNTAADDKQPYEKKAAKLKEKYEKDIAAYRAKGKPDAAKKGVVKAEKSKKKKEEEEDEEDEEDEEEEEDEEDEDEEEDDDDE
UniProt P00738: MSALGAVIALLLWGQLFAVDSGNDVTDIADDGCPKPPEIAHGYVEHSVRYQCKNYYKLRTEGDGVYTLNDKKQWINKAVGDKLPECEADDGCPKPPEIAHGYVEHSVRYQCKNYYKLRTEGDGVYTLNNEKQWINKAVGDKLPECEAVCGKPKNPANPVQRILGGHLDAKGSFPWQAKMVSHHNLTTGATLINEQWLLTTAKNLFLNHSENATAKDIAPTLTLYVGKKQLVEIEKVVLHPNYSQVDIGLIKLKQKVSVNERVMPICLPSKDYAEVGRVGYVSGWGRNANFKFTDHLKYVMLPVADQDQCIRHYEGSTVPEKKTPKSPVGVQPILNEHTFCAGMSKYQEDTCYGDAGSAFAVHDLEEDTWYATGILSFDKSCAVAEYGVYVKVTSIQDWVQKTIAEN

| binding [1] | binding [2] | binding [3] | binding [4] | Substance |
| --- | --- | --- | --- | --- |
| binds | binds | binds | – | full-length haptoglobin (SEQ ID NO:2) (from UniProt P00738 19-406) |
| – | – | – | binds | Haptoglobin beta subunit (human) (from UniProt P00738 162-406) |
